# Laboratory results published in PubChem BioAssay AID1259422 (The Scripps Research Institute Molecular Screening Center, 2018).
# The list shows a part of the results, in another mix than the full data. Active and inactive are the calls of the source. No stated cut-off is given here; in the data, active means inhibition above about 32%; inactive means the rest.
# Assay: TEAD-YAP interaction inhibition, primary screen, TEAD-YAP interaction inhibitor project, luminescence, HEK-TIYL cells (AID 1259422);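 further: 0% = median of test compound wells and 100% = reference inhibitor wells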
# Conditions: TEAD-Gal4/YAP UAS-luciferase luminescence, at 9.12 µM, hits give high values
row,SMILES,inhibition
1,CCC(CO)Nc1ccc2ncc(-c3cccc(NC(C)=O)c3)n2n1 (configuration not stated),active: 75%
2,O=C(/C=C/c1ccccc1)Nc1cccc(O)c1,active: 71.5%
